Data as given in PubChem BioAssay AID686943 (Drosophila RNAi Screening Center, 2013)
In all, the deposit lists about 23,000 reagents; shown is a random part of those that have a named target and a result. 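Extra replicates exist only for a retested subset of genes; insulin dose and duration not given; both raised and lowered dpERK matter.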 Reagents against one gene are numbered here. Further read-outs or replicates are left out here. The record does not give: the amount of reagent, the time to read-out.

Purpose: 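Search across the genome for regulators of signalling from receptor tyrosine kinase to ERK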 (primary screen)
Cells: Drosophila S2R+ haemocyte-like cells expressing YFP-tagged ERK (Rolled)
Reagents: long dsRNA against Drosophila genes
Treatment: insulin stimulation versus unstimulated cells; dose and duration not given
Measured: 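Antibody staining for doubly phosphorylated ERK divided by ERK-YFP signal, as plate z-scores, in insulin-treated and untreated cells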
Direction: replicate 1, z-score of dpERK with insulin: higher = more active ERK per ERK-YFP after insulin

replicate 1, z-score of dpERK with insulin, by target gene and reagent
eloF (elongase F): #1 0.32
CG8326: #1 -1.58
rho-4 (rhomboid-4): #1 -0.28; #2 0.29
CG9992: #1 0.88; #2 -0.34
Obp18a (Odorant-binding protein 18a): #1 -0.36
CG14218: #1 -0.18
alphaTry (alphaTrypsin): #1 0.72
Elp6 (Elongator complex protein 6): #1 -0.49
orb (oo18 RNA-binding protein): #1 -4.79
CG31406: #1 0.49
PNKP (Polynucleotide kinase 3'-phosphatase): #1 -0.36
CG10469: #1 0.14
Tektin-C (Tektin C): #1 0.42
CG3906: #1 0.38
7B2: #1 1.29
Rgk2 (Rad, Gem/Kir family member 2): #1 0.28; #2 0.09
CG42365: #1 -0.1
CG14005: #1 -0.01
Gs1l (GS1-like): #1 -0.28
CG32808: #1 0.6

No new results follow: entries from further up.
replicate 1, z-score of dpERK with insulin, by target gene and reagent
Tektin-C (Tektin C): #1 0.42
CG3906: #1 0.38
7B2: #1 1.29
